Among the data in article doi:10.1101/2024.11.08.622053 are binding values, retold here.

Results are given in words; binding and its absence hold for the method and conditions named. Binding seen in cells or lysates may run through a third protein. Here binding means that the protein was enriched with, or labelled near, the bait; the list need not be complete.

The target in the assay is full-length S protein tagged at its N-terminus with GFP (S. pneumoniae). The assay is described as follows: affinity purification with mass spectrometry.

B1: PgdA (enzyme, UniProt Q8DP63 1-463)
chain: MNKSRLGRGRHGKTRHVLLALIGILAISICLLGGFIAFKIYQQKSFEQKIESLKKEKDDQLSEGNQKEHFRQGQAEVIAYYPLQGEKVISSVRELINQDVKDKLESKDNLVFYYTEQEESGLKGVVNRNVTKQIYDLVAFKIEETEKTSLGKVHLTEDGQPFTLDQLFSDASKAKEQLIKELTSFIEDKKIEQDQSEQIVKNFSDQDLSAWNFDYKDSQIILYPSPVVENLEEIALPVSAFFDVIQSSYLLEKDAALYQSYFDKKHQKVVALTFDDGPNPATTPQVLETLAKYDIKATFFVLGKNVSGNEDLVKRIKSEGHVVGNHSWSHPILSQLSLDEAKKQITDTEDVLTKVLGSSSKLMRPPYGAITDDIRNSLDLSFIMWDVDSLDWKSKNEASILTEIQHQVANGSIVLMHDIHSPTVNALPRVIEYLKNQGYTFVTIPEMLNTRLKAHELYYSRDE
B1: the binding entry is given as “binds”.

B2: PBP1a (enzyme, UniProt Q8DR59 1-719)
chain: MNKPTILRLIKYLSISFLSLVIAAIVLGGGVFFYYVSKAPSLSESKLVATTSSKIYDNKNQLIADLGSERRVNAQANDIPTDLVKAIVSIEDHRFFDHRGIDTIRILGAFLRNLQSNSLQGGSALTQQLIKLTYFSTSTSDQTISRKAQEAWLAIQLEQKATKQEILTYYINKVYMSNGNYGMQTAAQNYYGKDLNNLSLPQLALLAGMPQAPNQYDPYSHPEAAQDRRNLVLSEMKNQGYISAEQYEKAVNTPITDGLQSLKSASNYPAYMDNYLKEVINQVEEETGYNLLTTGMDVYTNVDQEAQKHLWDIYNTDEYVAYPDDELQVASTIVDVSNGKVIAQLGARHQSSNVSFGINQAVETNRDWGSTMKPITDYAPALEYGVYESTATIVHDEPYNYPGTNTPVYNWDRGYFGNITLQYALQQSRNVPAVETLNKVGLNRAKTFLNGLGIDYPSIHYSNAISSNTTESDKKYGASSEKMAAAYAAFANGGTYYKPMYIHKVVFSDGSEKEFSNVGTRAMKETTAYMMTDMMKTVLSYGTGRNAYLAWLPQAGKTGTSNYTDEEIENHIKTSQFVAPDELFAGYTRKYSMAVWTGYSNRLTPLVGNGLTVAAKVYRSMMTYLSEGSNPEDWNIPEGLYRNGEFVFKNGARSTWSSPAPQQPPSTESSSSSSDSSTSQSSSTTPSTNNSTTTNPNNNTQQSNTTPDQQNQNPQPAQP
As to B2, the binding entry is reported as “binds”.
